# From PubChem BioAssay AID2551 (National Center for Advancing Translational Sciences (NCATS), 2010)
# Sequences of proteins named here, by UniProt entry; tags and fusion partners are left off. A change or cut given only in a name is not applied to a line headed by its entry.
# UniProt P51450: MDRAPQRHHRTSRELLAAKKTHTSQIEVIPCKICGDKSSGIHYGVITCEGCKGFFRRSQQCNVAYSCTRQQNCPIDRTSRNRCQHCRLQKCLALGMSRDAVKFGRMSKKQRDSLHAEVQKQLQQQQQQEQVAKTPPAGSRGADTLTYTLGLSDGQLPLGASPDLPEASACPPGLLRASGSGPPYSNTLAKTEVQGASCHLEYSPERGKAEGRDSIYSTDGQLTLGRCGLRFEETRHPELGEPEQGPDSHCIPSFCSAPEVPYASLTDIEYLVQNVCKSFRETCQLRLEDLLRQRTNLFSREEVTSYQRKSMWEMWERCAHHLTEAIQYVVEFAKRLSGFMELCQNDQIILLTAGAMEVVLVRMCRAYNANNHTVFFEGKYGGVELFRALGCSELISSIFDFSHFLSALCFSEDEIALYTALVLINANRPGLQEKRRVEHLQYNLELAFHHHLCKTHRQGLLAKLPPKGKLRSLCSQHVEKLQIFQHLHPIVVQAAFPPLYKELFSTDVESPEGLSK
# The campaign covered roughly 310,000 compounds. About 17,000 (5.5%) were called active. Inconclusive results, whose numbers are uncertain, are shown with a selection of clear calls. The call rests on the fitted dose curve; in most records, active means well fitted inhibition curve with a large enough effect; inconclusive means small, poorly fitted or top-dose-only effect, or effect the other way; inactive means no such curve, though single readings can be large or run the other way. Potencies beside an inconclusive call are fits to weak or partial responses and may not hold up.
# Target: Nuclear receptor ROR-gamma (Mus musculus) (UniProt P51450)
# Assay: qHTS for inhibitors of ROR gamma transcriptional activity; further: nearly all actives have a fitted effect of over 60% in size
# Settings: Drosophila S2 Gal4-RORgamma UAS-luciferase reporter, 20 h; series mostly up to 53.6 µM
# How it was run: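 Stably transfected Drosophila Schneider cells are the test system, with ROR gamma fused to Gal4 and luciferase under UAS control; luminescence is read after 20 hr of 700 uM copper sulfate induction at ambient temperature.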
# Potency means the concentration at half of the fitted maximal effect.
row,Compound,Potency
1,COc1ccc(Cl)cc1/C=C/c1ccc2cccc(O)c2n1,active: 0.891 µM
2,CC1(C)CC(=O)C(Sc2nnc(-c3ccc(O)cc3)n2CC2CCCO2)C(=O)C1 (configuration not stated),inactive
3,CNC(=O)CC1C(=O)N(Cc2ccccc2)C(=S)N1NC(=O)c1cccc(F)c1 (configuration not stated),"inconclusive: 15.8 µM [inhibitor, single point]"
4,Cc1cccnc1NC(=O)NC(=O)c1ccc(C(C)(C)C)s1,inactive
5,COc1ccc(-c2cn3cc([N+](=O)[O-])ccc3n2)cc1OC,"inconclusive: 1.12 µM [activator, full curve]"
6,O=C(CCS(=O)(=O)c1ccccc1)NCCS(=O)(=O)c1ccccc1,"inconclusive: 35.5 µM [activator, single point]"
7,O=C(N/N=C/c1ccncc1)c1cc2ccccc2cc1O,"inconclusive: 35.5 µM [inhibitor, single point]"
8,Cc1ccc(NC(=O)C2CC(=O)N(C(C)C)C2)cc1C (configuration not stated),inactive
9,CN(CC1CCN(CCc2cccc(C(F)(F)F)c2)CC1)C(=O)c1ccc(F)cc1,"inconclusive: 2.24 µM [inhibitor, partial curve]"
10,COc1ccc(/C=N/NC(=O)c2ccc(NC(C)=O)cc2)cc1COc1ccc(F)cc1F,active: 11.2 µM
11,O=C(COC(=O)CNC(=O)c1ccccc1)NCCc1ccccc1,active: 10 µM
12,CCOc1ccc2nnc(-c3ccc(Br)cc3)n2n1,"inconclusive: 4.47 µM [activator, full curve]"
13,O=C(OCc1nnc(-c2ccccc2)o1)c1ccc2ccccc2n1,"inconclusive: 15.8 µM [activator, single point]"
14,COc1ccc(C(=O)Nc2ccc3c(c2)C(=O)NC3=O)cc1,inactive
15,CCc1nc(N[C@@H](Cc2c[nH]c3ccccc23)C(=O)O)c2oc3ccccc3c2n1,"inconclusive: 7.08 µM [activator, partial curve]"
16,O=C(CSc1nc2ccccc2c(=O)n1-c1ccc(F)cc1F)Nc1ccc(N2CCOCC2)cc1,"inconclusive: 3.98 µM [activator, full curve]"
17,Cc1ccc(NC(=O)c2cc(N3C(=O)C=CC3=O)ccc2Cl)cc1C,"inconclusive: 35.5 µM [inhibitor, single point]"
18,CCOc1cc(/C=C/C(=O)c2ccc(OC)c(CN3CCOCC3)c2)cc(Br)c1O,"inconclusive: 35.5 µM [inhibitor, single point]"
19,O=C1COc2ccc(C(=O)c3ccccc3C(=O)O)cc2N1,inactive
20,CC(=O)N1c2ccc(S(=O)(=O)NCCC(=O)NCc3ccc(F)cc3)cc2CC1C (configuration not stated),inactive
21,Cc1onc(-c2ccccc2Cl)c1C(=O)O/N=C(\N)c1ccc([N+](=O)[O-])o1,inactive
22,C=CCNC(=O)c1ccc(OC)cc1OC,"inconclusive: 10 µM [inhibitor, partial curve, poor fit]"
23,CCOc1ccc(S(=O)(=O)Nc2ccc3c(c2)OCO3)cc1,"inconclusive: 15.8 µM [activator, partial curve]"
24,CCCc1cc(C(=O)N2CCCC(C(=O)c3cccc4ccccc34)C2)n(C)n1 (configuration not stated),"inconclusive: 12.6 µM [activator, partial curve]"

# In a second layout: 2 of the compounds above.
row	Compound	Potency
7	O=C(N/N=C/c1ccncc1)c1cc2ccccc2cc1O	inconclusive: 35.5 µM [inhibitor, single point]
11	O=C(COC(=O)CNC(=O)c1ccccc1)NCCc1ccccc1	active: 10 µM

# Going on with the list.

row,Compound,Potency
1,CCN(C(=O)COC(=O)c1cccc(-n2cnnn2)c1)C1CCCCC1,inactive
2,Cc1ccc(C(=O)NC(=S)Nc2cc(C(F)(F)F)ccc2Cl)cc1,active: 10 µM
3,CC(C)c1nc2oc3ccccc3c(=O)c2c(=O)n1-c1ccccc1,"inconclusive: 20 µM [activator, partial curve]"
4,O=C(O)c1cccc(Nc2ncnc3c2cnn3-c2ccccc2)c1,"inconclusive: 0.282 µM [activator, full curve]"
5,COc1ccccc1NC(=O)c1ccc2c(c1)N(CC#N)C(=O)C(C)(C)O2,inactive
6,O=C(CSc1ccc2nnc(-c3ccccc3)n2n1)NCC1CCCO1 (configuration not stated),"inconclusive: 12.6 µM [inhibitor, single point]"
7,O=C(Nc1ccc(O)cc1)c1ccc2c(c1)C(=O)N(Cc1ccccc1)C2=O,"inconclusive: 17.8 µM [activator, single point]"
8,Cc1ccccc1-c1nc(CN(Cc2c(C)nn(C)c2C)C2CC2)c(C)o1,active: 5.62 µM
9,CCOCCOC(=O)C(C)Oc1ccc(Oc2ncc(Cl)cc2Cl)cc1 (configuration not stated),"inconclusive: 31.6 µM [activator, single point]"
10,CCOC(=O)C1=C(CSc2nccn2C)NC(=O)NC1c1cc(C)ccc1C (configuration not stated),inactive
11,CC(C)C(c1nnnn1C1CCCC1)N(C)C1CCCCC1 (configuration not stated),inactive
12,CCOC(=O)c1cc(C(C)C)sc1NC(=O)COC(=O)CCS(=O)(=O)c1ccccc1,"inconclusive: 15.8 µM [activator, single point]"
13,CCc1nnc(NC(=O)CC23CC4CC(CC(C4)C2)C3)s1,"inconclusive: 2.24 µM [inhibitor, partial curve]"
14,O=C1CC(c2ccc(F)cc2)Cc2nc(NCC3CCCO3)ncc21 (configuration not stated),"inconclusive: 12.6 µM [activator, partial curve]"
15,C/C(=N\NC(=O)CC1N=C(Cc2ccccc2)NNC1=O)c1ccc(Cl)cc1Cl (configuration not stated),"inconclusive: 31.6 µM [activator, single point]"
16,Oc1ccccc1/C=N/Nc1cc(N2CCCC2)nc(N2CCCC2)n1,active: 11.2 µM
17,O=C(Nc1nnc(-c2cccs2)o1)c1ccc(S(=O)(=O)N2CCOCC2)cc1,active: 0.708 µM
18,COc1ccc(/C=N/Nc2ncc(C(F)(F)F)cc2Cl)cc1OC,"inconclusive: 12.6 µM [inhibitor, single point]"
19,Cc1ccc2nc(Cl)c3nnnn3c2c1,inactive
20,C/C(=N\Nc1nccnc1Cl)c1ccc(O)c(C)c1,"inconclusive: 35.5 µM [inhibitor, single point]"
21,O=C(COCc1cc(-c2ccc3c(c2)OCO3)on1)N1CCN(c2cccc(Cl)c2)CC1,inactive
22,Cc1cc(C)c(NC(N)=S)c(C)c1,"inconclusive: 35.5 µM [inhibitor, single point]"
23,COc1ccc(-c2noc(C3CCCN(C(=O)c4ccccc4OC)C3)n2)cc1 (configuration not stated),"inconclusive: 12.6 µM [activator, partial curve]"
